According to publication PMC4949229:
No constants are given. Whether binding was seen depends on the method and setting. For some of these results: Binding seen in cells or lysates may run through a third protein. Some results given as binding are weak or reduced against the parent protein; the word gives no strength. Sequences can lack the tags named with a protein.

B1: NAC072 full length (NAC072-F), yeast two-hybrid fusion (protein, UniProt Q93VY3 1-297)
chain: MGVREKDPLAQLSLPPGFRFYPTDEELLVQYLCRKVAGYHFSLQVIGDIDLYKFDPWDLPSKALFGEKEWYFFSPRDRKYPNGSRPNRVAGSGYWKATGTDKIITADGRRVGIKKALVFYAGKAPKGTKTNWIMHEYRLIEHSRSHGSSKLDDWVLCRIYKKTSGSQRQAVTPVQACREEHSTNGSSSSSSSQLDDVLDSFPEIKDQSFNLPRMNSLRTILNGNFDWASLAGLNPIPELAPTNGLPSYGGYDAFRAAEGEAESGHVNRQQNSSGLTQSFGYSSSGFGVSGQTFEFRQ
B2: NAC072-N (1-167aa), yeast two-hybrid fusion (domain or fragment, UniProt Q93VY3 1-167)
chain: MGVREKDPLAQLSLPPGFRFYPTDEELLVQYLCRKVAGYHFSLQVIGDIDLYKFDPWDLPSKALFGEKEWYFFSPRDRKYPNGSRPNRVAGSGYWKATGTDKIITADGRRVGIKKALVFYAGKAPKGTKTNWIMHEYRLIEHSRSHGSSKLDDWVLCRIYKKTSGSQ
B3: NAC072-C (168-297aa), yeast two-hybrid fusion (domain or fragment, UniProt Q93VY3 168-297)
chain: RQAVTPVQACREEHSTNGSSSSSSSQLDDVLDSFPEIKDQSFNLPRMNSLRTILNGNFDWASLAGLNPIPELAPTNGLPSYGGYDAFRAAEGEAESGHVNRQQNSSGLTQSFGYSSSGFGVSGQTFEFRQ
B4: NAC072-EYFP^N (BiFC fusion) (protein, UniProt Q93VY3 1-297)
chain: B1 chain

Columns and labels:
[1] = molecular target: T1, ABA-responsive element binding factor 3 (ABF3), full length, yeast two-hybrid fusion (Arabidopsis) (UniProt Q9M7Q3); assay: two-hybrid; yeast; pGBKT7 and pGADT7 fusions; growth on SD/-Trp/-Leu or SD/-Trp/-Leu/-His/-Ade
T1 sequence: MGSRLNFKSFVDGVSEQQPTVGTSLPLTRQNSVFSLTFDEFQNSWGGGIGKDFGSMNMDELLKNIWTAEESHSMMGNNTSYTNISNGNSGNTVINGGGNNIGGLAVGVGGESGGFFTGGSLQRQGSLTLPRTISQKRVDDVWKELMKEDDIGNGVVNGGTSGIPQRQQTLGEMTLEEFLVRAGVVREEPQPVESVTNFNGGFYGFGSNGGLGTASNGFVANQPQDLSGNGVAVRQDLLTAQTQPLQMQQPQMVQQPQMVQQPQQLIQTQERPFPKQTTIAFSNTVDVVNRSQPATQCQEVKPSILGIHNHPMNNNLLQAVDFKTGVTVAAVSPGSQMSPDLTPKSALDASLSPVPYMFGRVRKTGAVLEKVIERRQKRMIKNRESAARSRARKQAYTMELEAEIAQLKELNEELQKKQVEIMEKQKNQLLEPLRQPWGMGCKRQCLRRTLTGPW

[2] = molecular target: T2, ABF3-EYFP^C (BiFC fusion) (Arabidopsis) (UniProt Q9M7Q3); assay: split reporter; BiFC; ABF3-EYFP^C and NAC072-EYFP^N cotransformed into Arabidopsis mesophyll protoplasts; 24 h in darkness; YFP fluorescence by confocal microscopy
T2 sequence: T1 sequence

| Binder | binding [1] | binding [2] |
| --- | --- | --- |
| B1 | binds | – |
| B2 | binds | – |
| B3 | binds | – |
| B4 | – | binds |
